PubChem BioAssay AID1224827 | NIAID, 2016
The deposit covers about 3,800 reagents; shown is an unselected part. Over the whole deposit, about 2,200 (57%) were called active. 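Active means a strong reporter change in either direction; calls are per siRNA, not per gene; qiagen siRNAs gave weaker effects.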 Reagents against one gene are numbered here. Further read-outs or replicates are left out here.

Test: 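Confirm genes whose knock-down changes LPS-driven TNF promoter activity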 (follow-up of hits)
Cells: RAW264.7 G9 mouse macrophage reporter clone
Reagents: single siRNA against mouse genes, 100 nM siRNA
Time to read-out: siRNA for 2 days, then LPS about 16 h
Challenge: bacterial lipopolysaccharide (LPS), 10 ng/ml, cells fixed after overnight (about 16 h) stimulation
Read-out: 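Imaged nuclear TNF reporter intensity, background removed, scaled per plate and to non-targeting control wells, as z-scores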
Direction: TNF reporter z-score, mean: higher = stronger Tnf promoter reporter signal; gene median z, three same-vendor siRNAs: higher = stronger Tnf reporter signal for the gene
Hit rule: 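Active siRNA: replicate-mean z-score of 2 or more, or -2 or less; no calls for control wells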

| gene | siRNA no. | TNF reporter z-score, mean | gene median z, three same-vendor siRNAs | call |
| --- | --- | --- | --- | --- |
| Stmn3 | 1 | -0.847 | -2.39 | inactive |
| Stmn3 | 2 | -2.39 | -2.39 | active |
| Stmn3 | 3 | -5.07 | -2.39 | active |
| Stmn3 | 4 | 0.281 | -0.0979 | inactive |
| Stmn3 | 5 | 0.668 | -0.0979 | inactive |
| Stmn3 | 6 | -2.26 | -0.0979 | active |
| Or2h1 | 1 | -1.66 | -2.73 | inactive |
| Or2h1 | 2 | -2.24 | -2.73 | active |
| Or2h1 | 3 | -3.62 | -2.73 | active |
| Or2h1 | 4 | 2.44 | 0.826 | active |
| Or2h1 | 5 | 0.0868 | 0.826 | inactive |
| Or2h1 | 6 | 0.563 | 0.826 | inactive |
| Slc16a10 | 1 | -0.879 | -1.46 | inactive |
| Slc16a10 | 2 | -1.46 | -1.46 | inactive |
| Slc16a10 | 3 | -6.64 | -1.46 | active |
| Slc16a10 | 4 | 0.896 | 0.0781 | inactive |
| Slc16a10 | 5 | 0.662 | 0.0781 | inactive |
| Slc16a10 | 6 | -0.359 | 0.0781 | inactive |
| Scgb1a1 | 1 | -3.35 | -3.75 | active |
| Scgb1a1 | 2 | -3.75 | -3.75 | active |
| Scgb1a1 | 3 | -4.5 | -3.75 | active |
| Scgb1a1 | 4 | 2.15 | 1.47 | active |
| Scgb1a1 | 5 | 1.63 | 1.47 | inactive |
| Scgb1a1 | 6 | 1.2 | 1.47 | inactive |

Sorted by “TNF reporter z-score, mean” (lowest first): 4 of the entries above.
| gene | siRNA no. | TNF reporter z-score, mean | gene median z, three same-vendor siRNAs | call |
| --- | --- | --- | --- | --- |
| Or2h1 | 3 | -3.62 | -2.73 | active |
| Or2h1 | 2 | -2.24 | -2.73 | active |
| Or2h1 | 1 | -1.66 | -2.73 | inactive |
| Or2h1 | 4 | 2.44 | 0.826 | active |
